# According to PubChem BioAssay AID1439 (NMMLSC, 2008):
# Protein sequences, listed by entry. Tags and fused reporters are not part of them.
# UniProt P09471, whole entry, looked up: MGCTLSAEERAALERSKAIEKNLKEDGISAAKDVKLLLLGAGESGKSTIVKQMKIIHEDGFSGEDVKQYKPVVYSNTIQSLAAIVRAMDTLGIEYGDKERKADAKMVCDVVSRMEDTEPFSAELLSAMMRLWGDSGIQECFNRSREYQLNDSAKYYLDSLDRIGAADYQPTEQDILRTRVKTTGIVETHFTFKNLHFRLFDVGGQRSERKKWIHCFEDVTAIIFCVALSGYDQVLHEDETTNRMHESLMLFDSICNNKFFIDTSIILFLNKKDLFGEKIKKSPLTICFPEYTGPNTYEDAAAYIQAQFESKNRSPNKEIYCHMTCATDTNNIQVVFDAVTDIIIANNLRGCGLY
# Screen size: about 220,000 compounds; about 770 (0.35%) were called active. The inconclusive results got no clear call from the source; some entries with a clear call stand among them for comparison. Rule as the data show it: active = binding response below about 49% or above about 150%; inconclusive = no clear call, values can overlap the other calls; inactive = in between.
# Target: Guanine nucleotide-binding protein G(o) subunit alpha (Homo sapiens) (UniProt P09471)
# Experiment: RGS7-Galphao binding modulators, primary screen, biochemical, multiplexed bead flow cytometry (AID 1439);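 also: fluorescent Galphao held in activated GDP-AlF4 state binding bead-coupled RGS7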
# Settings: at 10 µM, actives lie on both sides
row,Structure (SMILES),binding response (% of control)
1,CC(C)C(OC(=O)c1cccs1)C(=O)NCc1ccc2c(c1)OCO2 (centres undefined),inactive: 98.1%
2,CCCCOc1ccc(-c2cc(C(F)(F)F)c(C#N)c(SCC(=O)O)n2)cc1,inactive: 109%
3,O=C(CCC1CCCC1)Nc1cccn(Cc2ccccc2Br)c1=O,inconclusive: 92%
4,Cc1ccc(Cl)c(OCC(=O)NN2CCN(C)CC2)c1,inconclusive: 111%
5,Cc1c2c(=O)n(-c3nc4ccccc4s3)nc-2cc(O)n1Cc1ccccc1,inconclusive: 84.6%
6,O=C(OCC(=O)N1CCOCC1)c1c(Cl)ccc(Cl)c1Cl,inconclusive: 101%
7,CSc1ccccc1C(=O)Nc1ccc(C)cc1C,inconclusive: 105%
8,Cc1c(NC(=O)CSCc2c(F)cccc2Cl)c(=O)n(-c2ccccc2)n1C,inconclusive: 89.4%
9,Cc1ncc(CO)c(/C=N/NC(=O)c2cc(O)c(O)c(O)c2)c1O,inconclusive: 42.8%
10,N=c1sccn1CC(=O)Nc1ccc(Cl)cc1[N+](=O)[O-],inconclusive: 44.1%
11,CCOc1ccc(/C=N/NC(=S)NC2CC3CC2C2C=CCC32)cc1 (centres undefined),inconclusive: -82.5%
12,COc1ccc(CN(C(=O)c2cccs2)c2ccccc2C(=O)O)cc1,inconclusive: -70.8%
13,CC(NC(=O)Cc1cccc(C(F)(F)F)c1)c1ccc(F)cc1 (centres undefined),inconclusive: 106%
14,Nc1ccc2oc(-c3ccccc3Cl)cc(=O)c2c1O,active: 167% [activator]
15,COc1ccc2c3c([nH]c2c1)C1CC2C(CC(O)C(OC)C2CO)CN1CC3 (centres undefined),inconclusive: 89.3%
16,CCOC(=O)C1CCN(C(=O)c2cc(C)n(C(C)(C)C)n2)CC1,inconclusive: 99.4%
17,CCc1nc2ccccc2[nH]c1=O,inconclusive: 64.9%
18,O=C1NC[C@H](Cc2ccccc2)N(CCc2cccc(F)c2)C1=O,inconclusive: 101%
19,CCN(CC)S(=O)(=O)c1cccc(C(=O)N/N=C/c2ccc([N+](=O)[O-])o2)c1,inconclusive: 116%
20,C=CCNC(=O)C1COc2ccccc2O1 (centres undefined),inconclusive: 107%
21,CCCCCn1c2c(c(=N)c3ccccc31)CCC2,inconclusive: 92.5%
22,CCOc1ncccc1C(=O)Nc1ccc(OC)c(S(=O)(=O)N2CCCCC2)c1,inconclusive: 90.1%

# Laid out differently: 3 of the compounds above.
row | Structure (SMILES) | binding response (% of control)
1 | CC(C)C(OC(=O)c1cccs1)C(=O)NCc1ccc2c(c1)OCO2 (centres undefined) | inactive: 98.1%
6 | O=C(OCC(=O)N1CCOCC1)c1c(Cl)ccc(Cl)c1Cl | inconclusive: 101%
14 | Nc1ccc2oc(-c3ccccc3Cl)cc(=O)c2c1O | active: 167% [activator]

# Next part:

row,Structure (SMILES),binding response (% of control)
1,Cc1nc2ccc(C(=O)OCc3ccccc3Br)cc2nc1C,inactive: 102%
2,CN(C(=O)CSc1nnc(-c2ccncc2)n1-c1ccccc1)C1CCS(=O)(=O)C1 (centres undefined),inconclusive: 66.4%
3,CCCn1cc([C@@H]2C[C@H]3CN(Cc4cccc(Cl)c4)C(=O)[C@]34CCCN24)c(C)n1,inconclusive: 78.3%
4,CCOC(=O)N1CCN(CC(=O)Nc2sc(CC)cc2C(=O)c2ccc(OC)cc2)CC1,inconclusive: 114%
5,O=C(O)CCCNC(=O)/C(=C\c1ccc(Cl)cc1)NC(=O)c1ccccc1Br,inconclusive: 95.8%
6,Cc1cc(-c2nnnn2-c2cc(Cl)cc(Cl)c2)no1,inconclusive: 83.5%
7,COc1ccc(NC(=O)C2=C(C)Nc3nc(CCCO)nn3C2c2ccc(OC)c(OC)c2)cc1 (centres undefined),inconclusive: 98.1%
8,CCOC(=O)C1=NN(C(=O)COc2ccccc2)C(O)(c2ccc(Br)cc2)C1 (centres undefined),inactive: 101%
9,CC(=O)N(C(C)=O)c1nc2nc(C)cc(C)n2n1,inconclusive: 88.3%
10,COc1ccc(N(C)C(=S)Nc2ccc3nc(C)c(C)nc3c2)cc1,inactive: 94.6%
11,COc1cc(OC)c(N(C)S(=O)(=O)c2cccc(C(=O)Nc3nnc(C4CC4)s3)c2)cc1Cl,inconclusive: 116%
12,CC(C)S(=O)(=O)CC(=O)c1ccc(Cl)cc1,inconclusive: 114%
13,CCCCCCc1cc2cc(-c3nnc(-c4ccccc4O)o3)c(=O)oc2cc1O,inactive: 109%
14,O=C(/C=C/c1ccc(O)cc1)c1c(O)cc(O)cc1O,inconclusive: 143%
15,Cc1onc(-c2ccccc2)c1CNS(=O)(=O)c1ccccc1,inconclusive: 105%
16,CC(C)(O)C#Cc1ccc(CN2CCN(C3CCCC3)C(CCO)C2)cc1 (centres undefined),inactive: 94%
17,Fc1ccc(/C=N/n2cnn(Cc3ccccc3Cl)c2=S)cc1,inconclusive: 192%
18,CCC(=O)N1CCc2cc(Br)cc(S(=O)(=O)CCC(=O)NCc3ccco3)c21,inactive: 101%
19,COc1ccc(C2/C=C\CN(C(=O)c3ccccc3)[C@H](Cc3ccccc3)C(=O)N2Cc2ccc(F)cc2)cc1 (some centres undefined),inconclusive: 120%
20,CC1(OC(=O)C2CCCC2)C(=O)C=C2C=C(c3ccsc3)N(Cc3ccccc3)C=C2C1=O (centres undefined),inconclusive: 106%
21,COc1ccc2c(c1OC)C(=O)OC2C/C(=N\NC(N)=O)c1ccccc1 (centres undefined),inconclusive: 98.6%
22,O=C1Nc2c(c(=O)[nH]c(=O)n2-c2ccc(F)cc2)C1(NS(=O)(=O)c1ccccc1)C(F)(F)F (centres undefined),inconclusive: 122%
